Part of at least one peptide drawing is inferred or uncertain, most often the ends. Residues, ends and D or L forms follow the SMILES beside them.
System: collagen induced rat thrombocytopenia (platelet aggregation)
Experiment: In vivo rat thrombocytopenia (collagen induced)
Details: infusion into jugular vein; for % INHIBITION AT 1 mg/kg: collagen 60 μg/kg
Method: In another test, the effect of the peptide mimetic compound on collagen induced thrombocytopenia (platelet aggregation) is measured in vivo in the rat. Again, the % inhibition is determined for the test compound and compared against a saine or ethanol vehicle in the absence of the test compound.
Male rats [Charles River, CRL:CD(SD), 400-450 g] were used. The rats were anesthetized with Na pentabarbital (65 mg/kg, Vet Labs, Limited, lnc., Lenexa, Kan.). Two incisions were made to expose both jugular veins. Using an infusion pump (Harvard Apparatus, South Natick, Mass.) and a 5 cc syringe with a 19 g. butterfly, the test compound or vehicle was infused into the left jugular vein at a rate of 0.39 ml/min for 3 min. After 2 min of compound/vehicle infusion, collagen (60 μg/kg) (Helena Laboratories,Beaumont, Tex.) was injected with a one ml syringe into the right jugular vein. The body cavity was opened and the vena cava was exposed for blood sampling. One min after the collagen injection, compound infusion was stopped and blood was sampled from the vena cava (within 30 sec) with a 3 cc syringe containing […] of 4.5% EDTA/Tris (0.1 M) (pH 7.35) plus 150 μM indomethacin. Platelet rich plasma (PRP) was prepared by centrifuging the blood at 126×g for 10 min. Five μ1 of PRP was counted in 20 ml of Isoton®III in a Coulter Counter.
Percent inhibition of collagen induced aggregation was calculated by comparison of the platelet counts in animals that were treated with test compound and collagen (a) with platelet counts for animals receiving no collagen (non-aggregated control) and (b) with platelet counts for animals receiving vehicle and collagen (aggregated control).
The % inhibition of platelet aggregation in vivo and the median effective dose (ED50) of the test compounds are set forth in the following Table II.

SMILES	% INHIBITION AT 1 mg/kg [%]	ED50 (collagen induced thrombocytopenia) [mg/kg]
COc1ccc(C[C@H](NC(=O)[C@H](CC(=O)O)NC(=O)CNC(=O)[C@@H](N)CCCNC(=N)N)C(N)=O)cc1 [Arg--Gly--Asp--(O--methyl-Tyr)--NH2, Arg-Gly-Asp-(O-methyl-Tyr)-NH2, reference compound] (H-RGDY(Me)-NH2)	74.60	0.87
N=C(N)NCCC[C@H](N)C(=O)NCC(=O)N[C@@H](CC(=O)O)C(=O)N[C@@H](CO)C(=O)O [Arg--Gly--Asp--Ser, Arg-Gly-Asp-Ser, reference compound]	22.85	

— patent US4879313A, “Novel platelet-aggregation inhibitors” (Mosanto Company, priority 1988, dated 1989)
